Measured values reported in patent publication US20230193192A1 (priority 2021, published 2023).
Where a name gives a salt, the structure may show the parent alone. For at least one compound, name, drawing or mass did not settle the structure.

Test system: Francisella
Format: cell-based

For CCCCCCCCCCCCOS(=O)(=O)O [lauryl sulfate, Dodecyl sulfate], the growth-inhibition effect was “significant growth inhibition”.
